Measured values from the supplement of paper PMC9015667.
Counter-ions that a name gives are not always drawn. This is one part of the list. Many values rest on one well or one pass, so single values are uncertain.

Assays:
Assay in all cases: reduction in cell viability relative to untreated/vehicle; higher = more growth inhibition
Details in all cases: 200 nM; 72 h
M229P = test system: M229P (parental melanoma line)
M229R = test system: M229R (matched melanoma line resistant to BRAF inhibitors)
M238P = test system: M238P (parental melanoma line)
M238R = test system: M238R (matched melanoma line resistant to BRAF inhibitors)
M249P = test system: M249P (parental melanoma line)
M249R = test system: M249R (matched melanoma line resistant to BRAF inhibitors)
UACC62P = test system: UACC62P (parental melanoma line)
UACC62R = test system: UACC62R (matched melanoma line resistant to BRAF inhibitors)

Measured: reduction in cell viability

Clc1cccc(-n2nnnc2NCc2ccccc2Oc2ccccn2)c1Cl
3.72%: UACC62P
< 0%: all other assays above

O=C1CN2Cc3c(ccc(Cl)c3Cl)N=C2N1 [anagrelide]
12.7%: M249P
12.3%: UACC62R
< 0%: all other assays above

CCC[C@H](NC(=O)[C@@H]1[C@H]2CCC[C@H]2CN1C(=O)[C@@H](NC(=O)[C@@H](NC(=O)c1cnccn1)C1CCCCC1)C(C)(C)C)C(=O)C(=O)NC1CC1 [Telaprevir (VX-950)]
0.49%: M249R
0.85%: UACC62P
< 0%: all other assays above

Clc1ccccc1CN1CCc2sccc2C1 [Ticlopidine hydrochloride]
2.54%: M249R
< 0%: all other assays above

Cc1ccc(C(=O)N(CCCN)[C@@H](c2oc3cc(Cl)ccc3c(=O)c2Cc2ccccc2)C(C)C)cc1
77.6%: M238P
69.3%: M238R
75.4%: UACC62R
50%: UACC62P
33.8%: M229R
39.1%: M249P | M249R
24.8%: M229P

c1cncc(CN2CCC(n3ncc4c(N5CCOCC5)nc(-c5ccc6[nH]ccc6c5)nc43)CC2)c1
2.47%: M249R
9.46%: M229R
< 0%: all other assays above

CCOC(=O)[C@H](CCc1ccccc1)N[C@@H](C)C(=O)N1CCC[C@H]1C(=O)O [Enalapril maleate]
< 0%: all assays above

CO[C@@H]1[C@@H](OC(N)=O)[C@@H](O)[C@H](Oc2ccc3c(O)c(NC(=O)c4ccc(O)c(CC=C(C)C)c4)c(=O)oc3c2C)OC1(C)C [Novobiocin sodium]
3.97%: M229R
< 0%: all other assays above

COC(=O)/C=C/C(=O)OC [Dimethyl fumarate]
< 0%: all assays above

CCOC(=O)N[C@@H]1CC[C@@H]2[C@@H](C1)C[C@H]1C(=O)O[C@H](C)[C@H]1[C@H]2/C=C/c1ccc(-c2cccc(F)c2)cn1 [Vorapaxar]
< 0%: all assays above

Clc1ccc2c(c1)C(N1CCNCC1)=Nc1ccccc1O2 [Amoxapine]
4.16%: UACC62P
8.04%: M249R
< 0%: all other assays above

CC(=O)N(C)C1(c2ccccc2)CCN(CCC[C@]2(c3ccc(Cl)c(Cl)c3)CCCN(C(=O)c3ccccc3)C2)CC1 [Osanetant]
< 0%: all assays above

COC(=O)Nc1nc2cc(C(=O)c3ccccc3)ccc2[nH]1 [Mebendazole]
38.6%: UACC62P
22.1%: M229P
48.5%: M229R
42.9%: M238R
29%: M249R
80.6%: UACC62R
45.8%: M238P
25%: M249P

Arranged by molecular weight (low to high): some entries from above.
COC(=O)Nc1nc2cc(C(=O)c3ccccc3)ccc2[nH]1 [Mebendazole]
38.6%: UACC62P
22.1%: M229P
48.5%: M229R
42.9%: M238R
29%: M249R
80.6%: UACC62R
45.8%: M238P
25%: M249P

Clc1ccc2c(c1)C(N1CCNCC1)=Nc1ccccc1O2 [Amoxapine]
4.16%: UACC62P
8.04%: M249R
< 0%: all other assays above

CC(=O)N(C)C1(c2ccccc2)CCN(CCC[C@]2(c3ccc(Cl)c(Cl)c3)CCCN(C(=O)c3ccccc3)C2)CC1 [Osanetant]
< 0%: all assays above

Further results follow.

CCNC(=O)CCC/C=C\C[C@@H]1[C@@H](/C=C/[C@@H](O)CCc2ccccc2)[C@H](O)C[C@@H]1O [Bimatoprost]
< 0%: all assays above

C[C@H](NC(=O)/C(C#N)=C/c1cccc(Br)n1)c1ccccc1
< 0%: all assays above

N#CC(c1ccc(Cl)cc1)c1c(Cl)cc(-n2ncc(=O)[nH]c2=O)cc1Cl (stereo not given) [Diclazuril]
11.3%: M249R
< 0%: all other assays above

CN(C)CCOc1cc(-c2cn[nH]c2)ccc1NC(=O)C1COc2ccccc2O1 (stereo not given)
9.93%: M229R
6.69%: UACC62P
< 0%: all other assays above

Nc1nc2c(ncn2COC(CO)CO)c(=O)[nH]1 [Ganciclovir]
0.87%: UACC62P
< 0%: all other assays above

COc1ccc([C@@H]2Sc3ccccc3N(CCN(C)C)C(=O)[C@@H]2OC(C)=O)cc1 [Diltiazem hydrochloride]
< 0%: all assays above

CCOc1cc(N)c(Cl)cc1C(=O)NCC1CN(Cc2ccc(F)cc2)CCO1 (stereo not given) [Mosapride citrate]
< 0%: all assays above

Oc1cc(O)cc(/C=C/c2ccc(O)c(O)c2)c1 [Piceatannol]
0.81%: M229R
< 0%: all other assays above

C[C@@H](O)[C@H]1C(=O)N2C(C(=O)O)=C(S[C@@H]3CN[C@H](CNS(N)(=O)=O)C3)[C@H](C)[C@H]12 [Doripenem]
< 0%: all assays above

COc1cc2c(Oc3ccc(NC(=O)C4(C(=O)Nc5ccc(F)cc5)CC4)cc3F)ccnc2cc1OCCCN1CCOCC1 [Foretinib]
3.11%: M249R
5.91%: M238P
20.8%: M229R
23%: M238R
< 0%: all other assays above

CN1C2=CC(=O)/C(=N\NC(N)=O)C=C2CC1S(=O)(=O)O (stereo not given) [Carbazochrome sodium sulfonate]
< 0%: all assays above

CN(C/C=C/C#CC(C)(C)C)Cc1cccc2ccccc12 [Terbinafine hydrochloride]
< 0%: all assays above

CCCn1c(=O)c2nc(C34CC5CC(CC3C5)C4)[nH]c2n(CCC)c1=O [Rolofylline]
2.47%: UACC62P
< 0%: all other assays above

CNc1nc(-c2ccc3c(N)n[nH]c3c2)cc(N2C[C@@H](C(=O)NC3CCCCC3)CC[C@H]2C)n1
1.96%: M249R
2.12%: UACC62P
< 0%: all other assays above

CC(C)(C)c1cc(C(C)(C)C)c(NC(=O)c2c[nH]c3ccccc3c2=O)cc1O [Ivacaftor]
< 0%: all assays above

CC(C)CCCCC(=O)N[C@@H](CCN)C(=O)N[C@H](C(=O)N[C@@H](CCN)C(=O)N[C@H]1CCNC(=O)[C@H]([C@@H](C)O)NC(=O)[C@H](CCN)NC(=O)[C@H](CCN)NC(=O)[C@H](CC(C)C)NC(=O)[C@@H](Cc2ccccc2)NC(=O)[C@H](CCN)NC1=O)[C@@H](C)O [Polymyxin B sulphate]
< 0%: all assays above

CCCCCCCN(CC)CCCC(O)c1ccc(NS(C)(=O)=O)cc1 (stereo not given) [Ibutilide fumarate]
< 0%: all assays above

COc1cc2nccc(Oc3ccc(NC(=O)NC4CC4)c(Cl)c3)c2cc1C(N)=O [Lenvatinib (E7080)]
< 0%: all assays above

CC(=O)OCC(=O)[C@@]1(O)CC[C@H]2[C@@H]3CCC4=CC(=O)CC[C@]4(C)[C@H]3C(=O)C[C@@]21C [Cortisone acetate]
17.1%: M249R
< 0%: all other assays above

C=CC1=C(C(=O)O)N2C(=O)[C@@H](NC(=O)/C(=N\O)c3csc(N)n3)[C@H]2SC1 [Cefdinir]
< 0%: all assays above

Cc1c(-c2ccc(O)cc2)n(Cc2ccc(OCCN3CCCCCC3)cc2)c2ccc(O)cc12 [Bazedoxifene]
< 0%: all assays above

CSCC[C@H](NC(=O)[C@H](Cc1c[nH]c2ccccc12)NC(=O)CCNC(=O)OC(C)(C)C)C(=O)N[C@@H](CC(=O)O)C(=O)N[C@@H](Cc1ccccc1)C(N)=O [Pentagastrin]
< 0%: all assays above

NS(=O)(=O)c1cc2c(cc1Cl)N=CNS2(=O)=O [Chlorothiazide]
< 0%: all assays above

CCOc1ccn(-c2ccc(F)cc2)c(=O)c1C(=O)Nc1ccc(Oc2ccnc(N)c2Cl)c(F)c1
< 0%: all assays above

COc1cc(C2Oc3cc([C@H]4Oc5cc(O)cc(O)c5C(=O)[C@@H]4O)ccc3OC2CO)ccc1O (stereo not given in full) [Silybin]
7.41%: M229R
< 0%: all other assays above

CC(C)(Oc1ccc(C2CC2(Cl)Cl)cc1)C(=O)O (stereo not given) [Ciprofibrate]
5.29%: M249P
< 0%: all other assays above

C[C@@H]1C[C@H]2[C@@H]3CCC4=CC(=O)C=C[C@]4(C)[C@@]3(Cl)[C@@H](O)C[C@]2(C)[C@@]1(OC(=O)c1ccco1)C(=O)CCl [Mometasone furoate]
5.36%: M249R
< 0%: all other assays above
